## Library screening results

Chains of the proteins cited; added tags and fusions are not shown.
UniProt E9BF75, entry or part of it: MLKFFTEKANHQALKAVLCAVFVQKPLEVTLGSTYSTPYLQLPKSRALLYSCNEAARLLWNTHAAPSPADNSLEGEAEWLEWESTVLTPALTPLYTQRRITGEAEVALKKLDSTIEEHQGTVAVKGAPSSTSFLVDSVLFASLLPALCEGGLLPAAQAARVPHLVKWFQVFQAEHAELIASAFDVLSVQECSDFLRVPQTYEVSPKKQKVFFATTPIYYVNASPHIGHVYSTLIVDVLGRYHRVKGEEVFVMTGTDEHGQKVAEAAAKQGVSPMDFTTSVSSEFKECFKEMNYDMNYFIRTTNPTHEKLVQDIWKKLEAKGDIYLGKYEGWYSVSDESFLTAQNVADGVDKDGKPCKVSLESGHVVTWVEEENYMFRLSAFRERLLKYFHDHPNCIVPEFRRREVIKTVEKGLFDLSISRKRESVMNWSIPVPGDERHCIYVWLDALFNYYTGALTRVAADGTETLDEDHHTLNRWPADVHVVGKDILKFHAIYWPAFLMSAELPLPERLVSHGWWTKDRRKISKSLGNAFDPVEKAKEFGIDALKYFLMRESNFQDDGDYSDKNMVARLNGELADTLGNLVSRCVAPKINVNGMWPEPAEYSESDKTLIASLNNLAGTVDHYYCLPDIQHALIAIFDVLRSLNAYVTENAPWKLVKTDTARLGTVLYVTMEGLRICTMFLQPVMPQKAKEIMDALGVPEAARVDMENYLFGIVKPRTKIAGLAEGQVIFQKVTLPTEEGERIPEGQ

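Methionyl-tRNA synthetase (putative), Leishmania donovani (UniProt E9BF75). Primary screen of methionyl-tRNA synthetase; the read-out is not stated. The test concentration is not given. The values are filed as inhibition. Size under these conditions: about 68,000 compounds, about 24 of them at 50% or above in at least one test.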

Results are percentages, as filed.
How 0% and 100% were set is not recorded. Most values in the screen are low, and negative values occur.
Compounds were drawn at random from those tested, without regard to their results.

compound,inhibition
COc1ccc(C(=O)N2CC[C@@]3(O)CCCC[C@H]3C2)cc1OC,-0.303
CCC(Oc1ccccc1)c1nn2c(CN(CC)CC)nnc2s1 (stereo unspecified),4.737
O=C(COc1ccc2c(c1)OCO2)NCc1ccco1,4.774
O=C(c1cccnc1O)N1CCC2(CCCO2)CC1,14.8
O=S(=O)(NCC1CCOC1)N1CCc2ccccc2C1 (stereo unspecified),13.75
COCC(=O)NC[C@]1(O)CN(Cc2ccc3c(c2)OCCO3)C[C@H]1O,6.604
CCCNC1(c2ccc(Cl)cc2)CCOCC1,6.948
CC(C)N1CCC2(CC1)NC(=O)c1cc(Br)ccc1-n1nnnc12,6.266
Cc1cccc(N(CC(=O)c2ccccc2)C2=NCCCCC2)c1,8.746
OCc1cn([C@@H]2c3ccccc3C3(CCNCC3)[C@H]2O)nn1,16.85
Cc1nn(C)c(N(C)C)c1CNC1CCOc2c(F)cccc21 (stereo unspecified),11.22
COCC[C@]1(O)CCN(C(=O)c2cnn(C)c2)C[C@H]1C,4.467
Cc1nn(C)c(N2CCOCC2)c1CNCc1ccnn1C,11.6
CCN(CC)CCNCC1CCOC(C)(C)C1 (stereo unspecified),-6.402
Cc1cc(CS(=O)(=O)C(C)c2ccc(F)cc2)on1 (stereo unspecified),-0.2639
Cc1ncsc1C(=O)N1CCn2nc(CN3CCSCC3)cc2C1,5.651
Cc1cccc(Nc2cc(C)nc(C3CCCCN3CC(N)=O)n2)n1 (stereo unspecified),7.765
CC(C)NC(=O)N1CCC(n2ccc(C(F)(F)F)n2)CC1,11.33
CC(C)c1nc2c(n1C)CCN(Cc1nc(-c3ccoc3)no1)C2,23.46
c1nc(C2CCCCO2)ncc1CN1CCOCC1 (stereo unspecified),20.25
Cc1cc(C)n(CC(C)CNC(=O)NCc2csc(C)n2)n1 (stereo unspecified),-0.8065
CN(Cc1c(F)cccc1Cl)C(=O)Nc1cnn(CC(N)=O)c1,19.84
CC1COCCN1C(=O)Cc1cc(Cl)c2c(c1)OCCCO2 (stereo unspecified),5.42
Cc1ccc(NC(=O)CNc2ccccc2C(N)=O)c(C)c1,5.949
CC(NCC1=Cc2cc(Cl)ccc2OC1)c1nnc2n1CCCC2 (stereo unspecified),14.29
CCCN1CCN(C(=O)c2ccnc(N)c2)[C@H]2CS(=O)(=O)C[C@H]21,13.74
CCOc1ncccc1CNC(=O)c1csc(Br)c1,11.29
Cc1cc(C(=O)N2CCCC(n3cncn3)C2)c(C)n1CC1CC1 (stereo unspecified),24.04
CC(=O)N1CCN(C(=O)Nc2cnc3c(cnn3C(C)C)c2)CC1,6.145
CC(C(=O)Nc1cc(F)ccc1F)N1CCN(Cc2ncc[nH]2)CC1 (stereo unspecified),10.99
Cc1nc(C)n(C2CCCN(C(=O)c3c(C)nn4cccnc34)C2)n1 (stereo unspecified),10.24
Cc1ccc(C)c(CC(=O)NC2CCCS(=O)(=O)C2)c1 (stereo unspecified),0.9119
COc1cc2c(cc1CNC(=O)C(C)n1ccnc1C(C)C)CCC2 (stereo unspecified),10.05
COCCNC(=O)[C@@H]1CN(c2cc(OC)ncn2)C[C@H]2OCC[C@H]21,-3.75
CCNC(=O)CNC(=O)Nc1cccc(Cl)c1SC(F)F,7.065
CCc1noc(CNc2ccc(F)cc2OCC2CC2)n1,14.13
Cc1nc2cc(C(=O)N3CCn4c(nnc4C4CC4)C3)ccc2s1,12.66
CCCc1noc(CCCC(=O)N2CCCC2c2cnn(C)c2)n1 (stereo unspecified),14.37
Cc1nc(C2CCCN2CC(=O)Nc2c(C)nn(C)c2C)no1 (stereo unspecified),7.023
CC(C)CC(=O)NCc1cccc(OCCN(C)C2CCOCC2)c1,9.239
Cc1ccc(-c2nc(CN3CCOC(Cn4cncn4)C3)cs2)o1 (stereo unspecified),19.06
NC(=O)c1ccc(NC(=O)Cn2cc(-c3ccccc3)ncc2=O)cc1,21.1
CC(C)C(=O)N1CCN(S(C)(=O)=O)CC2(CC(=O)N(C)C2)C1 (stereo unspecified),15.33
COc1ccccc1C(=O)Nc1c(C)cnn1CC1CC1,11.71
O=C(c1cccn1Cc1cccs1)N1CCN(C(=O)C2CC2)CC1,16.6
CN1CCN2C(=O)N(c3ccccc3)C[C@H]2C1,9.89
Cc1cnn(CC2CCCN2CC(=O)Nc2nncs2)c1 (stereo unspecified),20.63
c1cnc(NCc2cncc3c2CCN(Cc2ccoc2)C3)nc1,10.48
CCN1CCN(CC(O)c2cc(Cl)ccc2Cl)CC1 (stereo unspecified),2.957
Cc1ccc(F)c(OC2(C(=O)O)CCN(C(=O)c3ccncc3)CC2)c1,5.674
Cc1cccc(CN2CCC3(CC2)CC(Oc2cccnc2)C3)n1,15.58
CCOc1ccccc1OC1CCN(C(=O)c2cnns2)CC1,21.79
Cc1cnn(CCNCc2csc(-c3ccc4c(c3)OCO4)n2)c1,15.31
Cc1cccc2[nH]c(C3CCCN(Cc4ccc(CO)o4)C3)nc12 (stereo unspecified),6.265
CC(NC(=O)CCc1ccsc1)c1ccc2c(c1)NC(=O)CO2 (stereo unspecified),8.197

For reference, 5 entries once more:

- CC(NCC1=Cc2cc(Cl)ccc2OC1)c1nnc2n1CCCC2 (stereo unspecified) : 14.29%
- Cc1cccc(CN2CCC3(CC2)CC(Oc2cccnc2)C3)n1 : 15.58%
- Cc1cnn(CC2CCCN2CC(=O)Nc2nncs2)c1 (stereo unspecified) : 20.63%
- Cc1nc(C2CCCN2CC(=O)Nc2c(C)nn(C)c2C)no1 (stereo unspecified) : 7.023%
- COCC(=O)NC[C@]1(O)CN(Cc2ccc3c(c2)OCCO3)C[C@H]1O : 6.604%

From ChEMBL document CHEMBL3988442, “University of Dundee, Small-Polar-MMV Screening Library” (2021).